Measurements published in article doi:10.1101/2022.10.06.511211.
These are yes or no findings as the source states them, for the method shown. In cells and extracts the contact can be indirect. For some assays here: A result given as binding can be weak or reduced; the word gives no strength.

How the values were obtained:
Test in all cases: co-IP
[1] = molecular target: T1, SYNGAP1 C3-Trunc (Δ a.a. 1181-1343) (human) (UniProt Q96PV0)
T1 sequence: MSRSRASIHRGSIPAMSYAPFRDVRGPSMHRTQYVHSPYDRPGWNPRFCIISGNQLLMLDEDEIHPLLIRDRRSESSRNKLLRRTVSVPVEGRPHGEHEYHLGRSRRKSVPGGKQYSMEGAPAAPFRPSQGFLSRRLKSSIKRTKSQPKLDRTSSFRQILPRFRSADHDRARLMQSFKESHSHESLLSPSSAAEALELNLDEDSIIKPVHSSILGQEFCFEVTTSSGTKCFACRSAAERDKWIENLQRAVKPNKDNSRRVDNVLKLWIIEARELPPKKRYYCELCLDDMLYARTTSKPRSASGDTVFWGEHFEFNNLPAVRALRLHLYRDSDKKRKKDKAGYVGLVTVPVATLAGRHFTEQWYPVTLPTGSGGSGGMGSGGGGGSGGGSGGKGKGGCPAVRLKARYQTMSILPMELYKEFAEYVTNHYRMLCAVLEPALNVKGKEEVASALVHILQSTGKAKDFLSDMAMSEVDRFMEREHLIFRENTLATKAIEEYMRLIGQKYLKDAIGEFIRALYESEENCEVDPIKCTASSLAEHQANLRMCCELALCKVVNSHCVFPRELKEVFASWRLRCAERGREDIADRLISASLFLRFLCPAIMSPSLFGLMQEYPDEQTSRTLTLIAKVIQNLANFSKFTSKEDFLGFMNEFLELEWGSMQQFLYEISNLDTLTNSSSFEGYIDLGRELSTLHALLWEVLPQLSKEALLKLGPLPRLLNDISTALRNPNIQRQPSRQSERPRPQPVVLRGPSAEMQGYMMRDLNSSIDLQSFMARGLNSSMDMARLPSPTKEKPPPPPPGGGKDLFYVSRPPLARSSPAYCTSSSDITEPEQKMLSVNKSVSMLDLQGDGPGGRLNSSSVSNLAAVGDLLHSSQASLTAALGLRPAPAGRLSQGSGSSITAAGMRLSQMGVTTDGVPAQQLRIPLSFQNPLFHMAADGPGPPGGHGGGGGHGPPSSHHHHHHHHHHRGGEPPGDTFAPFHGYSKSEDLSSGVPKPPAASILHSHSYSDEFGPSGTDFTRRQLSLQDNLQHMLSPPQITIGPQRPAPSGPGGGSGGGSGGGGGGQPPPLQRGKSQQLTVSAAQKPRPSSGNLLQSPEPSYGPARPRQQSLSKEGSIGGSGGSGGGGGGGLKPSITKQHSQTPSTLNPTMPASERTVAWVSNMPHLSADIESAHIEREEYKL

[2] = molecular target: T2, human SYNGAP1 (human) (UniProt Q96PV0)
T2 sequence: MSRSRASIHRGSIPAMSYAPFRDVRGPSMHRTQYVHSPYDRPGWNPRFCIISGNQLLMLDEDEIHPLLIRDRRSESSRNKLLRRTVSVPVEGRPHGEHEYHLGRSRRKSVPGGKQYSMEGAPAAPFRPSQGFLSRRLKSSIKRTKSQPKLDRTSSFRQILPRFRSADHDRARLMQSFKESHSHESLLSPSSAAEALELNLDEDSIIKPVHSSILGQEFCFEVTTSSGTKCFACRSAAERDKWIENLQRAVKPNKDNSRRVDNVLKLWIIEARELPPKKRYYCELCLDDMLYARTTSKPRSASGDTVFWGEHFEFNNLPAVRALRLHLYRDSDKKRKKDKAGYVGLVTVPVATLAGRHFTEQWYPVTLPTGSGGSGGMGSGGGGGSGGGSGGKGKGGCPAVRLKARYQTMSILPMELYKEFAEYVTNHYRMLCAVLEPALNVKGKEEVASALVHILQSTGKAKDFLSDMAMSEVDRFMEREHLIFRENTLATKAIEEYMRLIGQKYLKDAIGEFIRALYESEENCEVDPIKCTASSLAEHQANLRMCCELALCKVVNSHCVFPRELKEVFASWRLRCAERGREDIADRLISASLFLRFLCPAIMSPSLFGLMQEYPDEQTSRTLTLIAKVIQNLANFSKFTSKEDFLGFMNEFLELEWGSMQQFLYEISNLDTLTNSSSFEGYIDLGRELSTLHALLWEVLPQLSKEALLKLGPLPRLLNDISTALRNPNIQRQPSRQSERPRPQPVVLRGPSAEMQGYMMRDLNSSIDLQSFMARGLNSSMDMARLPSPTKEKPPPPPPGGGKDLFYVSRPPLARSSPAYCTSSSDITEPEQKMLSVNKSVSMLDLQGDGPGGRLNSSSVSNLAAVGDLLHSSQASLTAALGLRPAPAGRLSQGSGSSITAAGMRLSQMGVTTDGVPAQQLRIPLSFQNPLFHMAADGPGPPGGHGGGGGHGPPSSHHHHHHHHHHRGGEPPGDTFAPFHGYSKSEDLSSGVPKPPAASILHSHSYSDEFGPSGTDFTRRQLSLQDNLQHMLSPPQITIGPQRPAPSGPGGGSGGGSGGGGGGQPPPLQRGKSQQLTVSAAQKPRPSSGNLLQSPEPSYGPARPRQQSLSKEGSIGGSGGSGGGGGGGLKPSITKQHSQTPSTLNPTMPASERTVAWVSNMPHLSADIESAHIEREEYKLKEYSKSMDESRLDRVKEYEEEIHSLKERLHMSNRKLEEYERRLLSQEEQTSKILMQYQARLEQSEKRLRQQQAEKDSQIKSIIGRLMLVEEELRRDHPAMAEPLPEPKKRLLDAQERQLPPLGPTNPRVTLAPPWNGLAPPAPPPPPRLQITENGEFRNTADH

[3] = molecular target: T3, SYNGAP1 C1-Trunc (Δ a.a. 730-1343) (human) (UniProt Q96PV0)
T3 sequence: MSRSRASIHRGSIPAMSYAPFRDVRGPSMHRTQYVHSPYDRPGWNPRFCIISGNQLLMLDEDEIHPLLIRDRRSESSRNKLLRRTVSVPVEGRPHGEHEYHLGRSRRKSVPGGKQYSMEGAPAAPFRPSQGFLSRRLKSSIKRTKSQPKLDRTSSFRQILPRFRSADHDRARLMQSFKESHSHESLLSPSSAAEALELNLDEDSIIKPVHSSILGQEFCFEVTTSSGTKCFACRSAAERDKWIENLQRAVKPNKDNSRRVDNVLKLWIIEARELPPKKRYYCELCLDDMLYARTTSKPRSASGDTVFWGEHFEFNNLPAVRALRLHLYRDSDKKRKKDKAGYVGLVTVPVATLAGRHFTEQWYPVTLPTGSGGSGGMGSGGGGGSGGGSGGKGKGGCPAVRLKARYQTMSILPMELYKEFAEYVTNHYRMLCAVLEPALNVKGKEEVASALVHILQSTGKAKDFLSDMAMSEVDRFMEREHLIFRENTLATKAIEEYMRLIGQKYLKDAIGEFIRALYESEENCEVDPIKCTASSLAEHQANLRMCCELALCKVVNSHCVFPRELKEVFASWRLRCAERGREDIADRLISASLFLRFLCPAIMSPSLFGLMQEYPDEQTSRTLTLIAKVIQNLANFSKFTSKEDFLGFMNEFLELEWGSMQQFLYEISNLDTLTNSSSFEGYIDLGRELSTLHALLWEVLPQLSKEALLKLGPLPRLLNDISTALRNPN

[4] = molecular target: T4, SYNGAP1 N-Trunc (Δ a.a. 2-361) (human) (UniProt Q96PV0)
T4 sequence: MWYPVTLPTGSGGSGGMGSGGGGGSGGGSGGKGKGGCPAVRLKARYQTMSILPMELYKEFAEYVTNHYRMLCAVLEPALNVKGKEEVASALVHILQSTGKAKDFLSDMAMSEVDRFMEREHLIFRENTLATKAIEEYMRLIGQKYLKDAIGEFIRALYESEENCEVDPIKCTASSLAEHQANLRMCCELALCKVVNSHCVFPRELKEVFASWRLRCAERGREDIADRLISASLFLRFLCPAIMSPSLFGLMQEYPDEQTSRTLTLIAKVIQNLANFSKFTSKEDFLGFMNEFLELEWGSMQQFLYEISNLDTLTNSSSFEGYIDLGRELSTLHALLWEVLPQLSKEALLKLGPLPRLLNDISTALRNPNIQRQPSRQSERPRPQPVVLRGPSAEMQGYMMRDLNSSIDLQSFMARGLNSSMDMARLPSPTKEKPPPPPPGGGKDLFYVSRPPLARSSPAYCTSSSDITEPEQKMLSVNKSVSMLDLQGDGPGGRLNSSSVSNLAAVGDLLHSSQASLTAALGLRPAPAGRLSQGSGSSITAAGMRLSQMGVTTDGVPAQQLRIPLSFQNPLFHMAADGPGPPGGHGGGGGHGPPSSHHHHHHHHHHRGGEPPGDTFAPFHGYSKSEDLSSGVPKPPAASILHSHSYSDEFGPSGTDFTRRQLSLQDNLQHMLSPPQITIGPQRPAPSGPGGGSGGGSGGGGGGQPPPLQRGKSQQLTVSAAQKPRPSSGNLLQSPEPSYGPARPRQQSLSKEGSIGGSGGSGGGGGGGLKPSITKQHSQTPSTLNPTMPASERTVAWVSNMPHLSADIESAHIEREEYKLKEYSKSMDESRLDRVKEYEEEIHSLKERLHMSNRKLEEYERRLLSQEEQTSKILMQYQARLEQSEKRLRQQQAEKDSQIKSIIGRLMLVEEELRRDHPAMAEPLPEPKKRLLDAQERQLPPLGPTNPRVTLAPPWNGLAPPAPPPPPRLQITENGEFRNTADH

[5] = molecular target: T5, SYNGAP1 C2-Trunc (Δ a.a. 848-1343) (human) (UniProt Q96PV0)
T5 sequence: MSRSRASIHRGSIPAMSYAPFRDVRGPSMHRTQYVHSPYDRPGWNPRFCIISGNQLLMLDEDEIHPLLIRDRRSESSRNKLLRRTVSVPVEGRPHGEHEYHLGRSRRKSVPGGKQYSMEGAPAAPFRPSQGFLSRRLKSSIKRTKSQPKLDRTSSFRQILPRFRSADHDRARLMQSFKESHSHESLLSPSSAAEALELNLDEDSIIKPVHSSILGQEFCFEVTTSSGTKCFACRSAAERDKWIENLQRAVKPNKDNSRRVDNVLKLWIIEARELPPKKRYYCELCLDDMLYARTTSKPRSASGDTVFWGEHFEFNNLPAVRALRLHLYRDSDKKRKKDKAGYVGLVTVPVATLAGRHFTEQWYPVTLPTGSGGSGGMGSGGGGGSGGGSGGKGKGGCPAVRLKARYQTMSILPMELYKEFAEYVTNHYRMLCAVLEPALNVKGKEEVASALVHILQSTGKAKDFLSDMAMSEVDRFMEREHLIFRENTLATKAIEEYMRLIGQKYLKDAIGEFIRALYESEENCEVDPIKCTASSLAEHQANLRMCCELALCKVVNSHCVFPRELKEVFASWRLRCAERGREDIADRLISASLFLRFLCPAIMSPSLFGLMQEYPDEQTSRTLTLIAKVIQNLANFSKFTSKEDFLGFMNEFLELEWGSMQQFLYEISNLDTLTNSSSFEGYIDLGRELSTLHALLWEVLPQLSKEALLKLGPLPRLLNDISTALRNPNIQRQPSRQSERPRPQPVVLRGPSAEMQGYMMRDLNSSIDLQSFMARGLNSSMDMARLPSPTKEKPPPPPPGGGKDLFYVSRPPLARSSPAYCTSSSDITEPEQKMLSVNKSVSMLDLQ

binding [1]: binds
binding [2]: binds
binding [3]: no binding
binding [4]: binds
binding [5]: no binding
Substance: human ANKS1B
